Data published in paper PMC11742723, “The clinical-stage drug BTZ-043 accumulates in murine tuberculosis lesions and efficiently acts against Mycobacterium tuberculosis” (Nature Communications, 2025).
Values joined by “and” are separate entries in the source; they are usually repeats but may differ in a detail not shown here. Equal values may be shown once. The source gives many values for each of these; only a part stands here.

What was measured:
[1] = system: Mtb H37Rv; assay: BTZ-043 dose-fractionation study in Mtb-infected BALB/c mice (lung CFU); type: in vivo, Mycobacterium tuberculosis; conditions: 6 weeks of treatment, individual female mice
[2] = LCM coupled LC-MS/MS of necrotic granulomas and non-necrotic regions; type: in vivo, IL-13tg mice; conditions: for ng BTZ-043 / mg tissue: LCM samples of mouse KW116 B11#1 (female)
Procedure: Necrotic granulomas and non-necrotic regions were dissected from 2 to 3 γ−irradiated serial lung cryosections (thickness: 12 µm) using a PALM Microbeam (Zeiss, Oberkochen, Germany). Laser-dissected tissues were captured in an ascorbic acid solution (2.5 mg/mL) to prevent the degradation of BTZ-043 and stored at -80 °C. Samples were thawed on ice before drying in the SpeedVac. For reconstitution 80 µL of an 80% ACN/ 20% FA, containing 20 ng/mL reserpine and d4-BTZ-043, were added. The samples were vortexed for 1 min and kept in an ultrasonic bath for 3 min. Subsequently, the samples were centrifuged (10 min, 15,000 × g). The supernatant was transferred into a glass vial and 5 µL was injected into the LC. The LC settings and MS parameters were the same as described for the tissue mimetics (Supplementary Methods). As internal standard d4-BTZ-043 was utilized, with the m/z-transitions 436.0 → 86.0 (cone voltage of 30 V, collision energy of 30 eV, dwell time of 0.2 s) as quantifier. With the expected very low concentrations of the analyte in the LCM material, the deuterated standard was applied to better mimic matrix effects and recovery for this analysis. For calibration curve preparation lung homogenate from drug-naïve mice was added to 80% ACN/20% FA (1%), containing reserpine (as QC) and d4-BTZ-043 (20 ng/mL per sample) to the final solution containing about 0.44 µg tissue/mL, which equals the average weight of the obtained material of the LCM. After centrifugation (5 min, 15,000 × g) the supernatant was spiked with BTZ-043 to yield a calibration curve ranging from 0.00015–0.025 µg/mL.

[3] = MALDI imaging and penetration analysis in centrally necrotizing granulomas
[4] = 2 h after administration; mouse KW116 B9#1 (male); individual cryosections
[5] = LCM flakes from granulome area (granuloma), IL-13tg mouse lung cryosections, 4h post administration, listed as BTZ

C[C@H]1COC2(CCN(c3nc(=O)c4cc(C(F)(F)F)cc([N+](=O)[O-])c4s3)CC2)O1 [BTZ-043]
pulmonary CFU counts / mouse ([1]; 2.5 mg/kg BTZ-043 QD): 157501 CFU counts / mouse
pulmonary CFU counts / mouse ([1]; 5 mg/kg BTZ-043 BID): 21501 CFU counts / mouse and 4501 CFU counts / mouse and 12501 CFU counts / mouse and 8001 CFU counts / mouse
pulmonary CFU counts / mouse ([1]; 5 mg/kg BTZ-043 QD): 117501 CFU counts / mouse and 42501 CFU counts / mouse
pulmonary CFU counts / mouse ([1]; 10 mg/kg BTZ-043 BID): 2001 CFU counts / mouse and 501 CFU counts / mouse and 1501 CFU counts / mouse and 8501 CFU counts / mouse
pulmonary CFU counts / mouse ([1]; 10 mg/kg BTZ-043 QD): 42501 CFU counts / mouse and 37501 CFU counts / mouse and 24001 CFU counts / mouse
pulmonary CFU counts / mouse ([1]; 25 mg/kg BTZ-043 BID): 301 CFU counts / mouse (2×) and 201 CFU counts / mouse and 251 CFU counts / mouse
pulmonary CFU counts / mouse ([1]; 25 mg/kg BTZ-043 QD): 4501 CFU counts / mouse and 4901 CFU counts / mouse (2×) and 12501 CFU counts / mouse
pulmonary CFU counts / mouse ([1]; 50 mg/kg BTZ-043 BID): 201 CFU counts / mouse and 251 CFU counts / mouse and 2751 CFU counts / mouse and 1151 CFU counts / mouse
pulmonary CFU counts / mouse ([1]; 50 mg/kg BTZ-043 QD): 801 CFU counts / mouse and 2501 CFU counts / mouse and 901 CFU counts / mouse and 101 CFU counts / mouse
pulmonary CFU counts / mouse ([1]; 100 mg/kg BTZ-043 QD): 426 CFU counts / mouse and 226 CFU counts / mouse and 1101 CFU counts / mouse and 551 CFU counts / mouse
pulmonary CFU counts / mouse ([1]; 250 mg/kg BTZ-043 QD): 31 CFU counts / mouse and 101 CFU counts / mouse and 151 CFU counts / mouse and 51 CFU counts / mouse
ng/mg lung tissue, technical replicate 1 [2, 5]: 0.369 ng/mg lung tissue and 0.458 ng/mg lung tissue and 0.813 ng/mg lung tissue
ng/mg lung tissue, technical replicate 2 [2, 5]: 0.870 ng/mg lung tissue and 0.482 ng/mg lung tissue
ng BTZ-043 / mg tissue ([2]; necrotic granuloma): 0.66 ng / mg tissue and 0.65 ng / mg tissue and 0.43 ng / mg tissue
ng BTZ-043 / mg tissue ([2]; non-necrotic region): 0.34 ng / mg tissue and 0.38 ng / mg tissue and 0.30 ng / mg tissue
Mean intensity ([3]; Left Granuloma, Distance 35 μm): 236.17
Mean intensity ([3]; Left Granuloma, Distance 45 μm): 282.39
Mean intensity ([3]; Left Granuloma, Distance 55 μm): 310.51
Mean intensity ([3]; Left Granuloma, Distance 65 μm): 324.23
Mean intensity ([3]; Left Granuloma, Distance 75 μm): 346.18
Mean intensity ([3]; Left Granuloma, Distance 85 μm): 367.03
Mean intensity ([3]; Left Granuloma, Distance 95 μm): 388.03
Mean intensity ([3]; Left Granuloma, Distance 105 μm): 370.88
Mean intensity ([3]; Left Granuloma, Distance 115 μm): 377.58
Mean intensity ([3]; Left Granuloma, Distance 125 μm): 383.7
Mean intensity ([3]; Left Granuloma, Distance 135 μm): 371.16
Mean intensity ([3]; Left Granuloma, Distance 145 μm): 401.4
Mean intensity ([3]; Left Granuloma, Distance 155 μm): 392.24
Mean intensity ([3]; Left Granuloma, Distance 165 μm): 371.48
Mean intensity ([3]; Left Granuloma, Distance 175 μm): 382.06
Mean intensity ([3]; Left Granuloma, Distance 185 μm): 388.34
Mean intensity ([3]; Left Granuloma, Distance 195 μm): 405.53
Mean intensity ([3]; Left Granuloma, Distance 205 μm): 387.79
Mean intensity ([3]; Left Granuloma, Distance 215 μm): 399.58
Mean intensity ([3]; Left Granuloma, Distance 225 μm): 383.92
Mean intensity ([3]; Left Granuloma, Distance 235 μm): 377.36
Mean intensity ([3]; Left Granuloma, Distance 245 μm): 373.48
Mean intensity ([3]; Left Granuloma, Distance 255 μm): 386.55
Mean intensity ([3]; Left Granuloma, Distance 265 μm): 359.62
Mean intensity ([3]; Left Granuloma, Distance 275 μm): 353.17
Mean intensity ([3]; Left Granuloma, Distance 285 μm): 377.6
Mean intensity ([3]; Left Granuloma, Distance 295 μm): 355
Mean intensity ([3]; Left Granuloma, Distance 305 μm): 371.92
Mean intensity ([3]; Left Granuloma, Distance 315 μm): 340.38
Mean intensity ([3]; Left Granuloma, Distance 325 μm): 368.57
Mean intensity ([3]; Left Granuloma, Distance 335 μm): 369.17
Mean intensity ([3]; Left Granuloma, Distance 345 μm): 346.57
Mean intensity ([3]; Left Granuloma, Distance 355 μm): 331.68
Mean intensity ([3]; Left Granuloma, Distance 365 μm): 311.31
Mean intensity ([3]; Left Granuloma, Distance 375 μm): 293.47
Mean intensity ([3]; Left Granuloma, Distance 385 μm): 306.24
Mean intensity ([3]; Left Granuloma, Distance 395 μm): 284.78
Mean intensity ([3]; Left Granuloma, Distance 405 μm): 259.38
Mean intensity ([3]; Left Granuloma, Distance 415 μm): 258.04
Mean intensity ([3]; Left Granuloma, Distance 425 μm): 238.33
Mean intensity ([3]; Left Granuloma, Distance 435 μm): 228.24
Mean intensity ([3]; Left Granuloma, Distance 445 μm): 200.86
Mean intensity ([3]; Left Granuloma, Distance -455 μm): 59.166
Mean intensity ([3]; Left Granuloma, Distance -465 μm): 58.773
Mean intensity ([3]; Left Granuloma, Distance -475 μm): 59.938
Mean intensity ([3]; Left Granuloma, Distance -485 μm): 61.183
Mean intensity ([3]; Left Granuloma, Distance -495 μm): 60.107
Mean intensity ([3]; Right Granuloma, Distance 25 μm): 246.96
Mean intensity ([3]; Right Granuloma, Distance 35 μm): 285.28
Mean intensity ([3]; Right Granuloma, Distance 45 μm): 285.32
Mean intensity ([3]; Right Granuloma, Distance 55 μm): 285.66
Mean intensity ([3]; Right Granuloma, Distance 65 μm): 263.2
Mean intensity ([3]; Right Granuloma, Distance 75 μm): 269.9
Mean intensity ([3]; Right Granuloma, Distance 85 μm): 264.64
Mean intensity ([3]; Right Granuloma, Distance 95 μm): 262.82
Mean intensity ([3]; Right Granuloma, Distance 105 μm): 237.99
Mean intensity ([3]; Right Granuloma, Distance 115 μm): 232.53
Mean intensity ([3]; Right Granuloma, Distance 125 μm): 217.71
Mean intensity ([3]; Right Granuloma, Distance 135 μm): 200.2
Mean intensity ([3]; Right Granuloma, Distance 145 μm): 196.76
Mean intensity ([3]; Right Granuloma, Distance 155 μm): 171.73
Mean intensity ([3]; Right Granuloma, Distance 165 μm): 157.99
Mean intensity ([3]; Right Granuloma, Distance 175 μm): 141.92
Mean intensity ([3]; Right Granuloma, Distance 185 μm): 149.28
Mean intensity ([3]; Right Granuloma, Distance 195 μm): 127.55
Mean intensity ([3]; Right Granuloma, Distance 205 μm): 110.03
Mean intensity ([3]; Right Granuloma, Distance 215 μm): 109
Mean intensity ([3]; Right Granuloma, Distance 225 μm): 107.72
Mean intensity ([3]; Right Granuloma, Distance 235 μm): 104.5
Mean intensity ([3]; Right Granuloma, Distance 245 μm): 85.525
Mean intensity ([3]; Right Granuloma, Distance 255 μm): 86.627
Mean intensity ([3]; Right Granuloma, Distance 265 μm): 83.831
Mean intensity ([3]; Right Granuloma, Distance 275 μm): 57.766
Mean intensity ([3]; Right Granuloma, Distance 285 μm): 61.956
Mean intensity ([3]; Right Granuloma, Distance 295 μm): 41.615
Mean intensity ([3]; Right Granuloma, Distance 305 μm): 38.157
Mean intensity ([3]; Right Granuloma, Distance 315 μm): 32.303
Mean intensity ([3]; Right Granuloma, Distance 325 μm): 44.171
Mean intensity ([3]; Right Granuloma, Distance 335 μm): 27.125
Mean intensity ([3]; Right Granuloma, Distance 345 μm): 33.852
Mean intensity ([3]; Right Granuloma, Distance 355 μm): 24.948
Mean intensity ([3]; Right Granuloma, Distance 365 μm): 44.659
Mean intensity ([3]; Right Granuloma, Distance 375 μm): 25.156
Mean intensity ([3]; Right Granuloma, Distance 385 μm): 0
Mean intensity ([3]; Right Granuloma, Distance -455 μm): 48.937
Mean intensity ([3]; Right Granuloma, Distance -465 μm): 54.472
Mean intensity ([3]; Right Granuloma, Distance -475 μm): 49.857
Mean intensity ([3]; Right Granuloma, Distance -485 μm): 45.472
Mean intensity ([3]; Right Granuloma, Distance -495 μm): 40.234
ng BTZ-043 / mg cryosection [4]: 1.06 ng / mg cryosection
